Assay results reported in paper PMC3430618.
No constants are given. Whether binding was seen depends on the method and setting. In cells and extracts the contact can be indirect. Some entries that bind do so weakly or less than the wild type.

By UniProt entry, the sequences of proteins in these tests, tags left out.
UniProt P34152: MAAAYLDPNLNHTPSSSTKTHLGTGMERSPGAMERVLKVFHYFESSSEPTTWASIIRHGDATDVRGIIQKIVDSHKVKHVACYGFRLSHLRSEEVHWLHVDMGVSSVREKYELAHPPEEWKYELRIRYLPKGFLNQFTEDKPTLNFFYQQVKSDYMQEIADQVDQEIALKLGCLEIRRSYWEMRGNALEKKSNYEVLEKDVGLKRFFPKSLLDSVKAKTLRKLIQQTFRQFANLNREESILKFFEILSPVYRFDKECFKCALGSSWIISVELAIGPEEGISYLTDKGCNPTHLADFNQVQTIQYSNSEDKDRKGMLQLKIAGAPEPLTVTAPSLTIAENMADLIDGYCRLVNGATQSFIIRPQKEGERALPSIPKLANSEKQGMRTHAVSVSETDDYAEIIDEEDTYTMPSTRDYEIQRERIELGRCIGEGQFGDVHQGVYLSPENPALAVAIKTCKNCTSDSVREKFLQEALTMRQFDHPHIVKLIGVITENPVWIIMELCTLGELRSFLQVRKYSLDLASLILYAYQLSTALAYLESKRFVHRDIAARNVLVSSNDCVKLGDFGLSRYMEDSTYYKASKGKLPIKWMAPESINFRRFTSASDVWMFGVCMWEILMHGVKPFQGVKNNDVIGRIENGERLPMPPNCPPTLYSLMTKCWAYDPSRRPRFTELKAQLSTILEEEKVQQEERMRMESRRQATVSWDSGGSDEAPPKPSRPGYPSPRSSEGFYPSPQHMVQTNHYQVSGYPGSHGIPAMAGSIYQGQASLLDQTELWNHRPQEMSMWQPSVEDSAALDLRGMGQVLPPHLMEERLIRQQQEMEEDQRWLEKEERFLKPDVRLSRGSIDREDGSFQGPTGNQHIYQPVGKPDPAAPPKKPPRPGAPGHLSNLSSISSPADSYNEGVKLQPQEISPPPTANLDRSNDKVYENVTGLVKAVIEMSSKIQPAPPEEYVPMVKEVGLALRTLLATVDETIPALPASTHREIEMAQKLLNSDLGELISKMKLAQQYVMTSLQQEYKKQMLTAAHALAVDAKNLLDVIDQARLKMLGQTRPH
UniProt Q60598: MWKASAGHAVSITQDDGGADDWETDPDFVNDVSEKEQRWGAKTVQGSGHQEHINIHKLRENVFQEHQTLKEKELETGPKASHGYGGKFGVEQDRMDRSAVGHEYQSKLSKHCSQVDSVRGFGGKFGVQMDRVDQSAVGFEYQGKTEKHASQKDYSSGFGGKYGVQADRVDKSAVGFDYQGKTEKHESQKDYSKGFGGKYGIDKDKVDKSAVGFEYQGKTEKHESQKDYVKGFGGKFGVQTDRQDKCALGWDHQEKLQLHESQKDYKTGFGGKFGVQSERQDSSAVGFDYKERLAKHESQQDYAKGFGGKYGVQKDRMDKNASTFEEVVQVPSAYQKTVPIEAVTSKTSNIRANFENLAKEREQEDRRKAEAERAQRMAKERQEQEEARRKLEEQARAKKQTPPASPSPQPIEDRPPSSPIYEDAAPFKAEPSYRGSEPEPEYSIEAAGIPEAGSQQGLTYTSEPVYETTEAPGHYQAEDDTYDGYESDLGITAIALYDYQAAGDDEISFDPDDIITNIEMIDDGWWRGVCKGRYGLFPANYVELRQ

How the values were obtained:
[1] = molecular target: FAK, endogenous in MEFs (mouse (endogenous in MEFs)) (UniProt P34152); experiment: co-IP; lysates of MEFs or GFP-FAK reconstituted FAK-/- MEFs held in suspension or replated on FN (30 and 60 min); Extraction Buffer with 1% Triton X-100, 0.5% sodium deoxycholate, 0.1% SDS, cytochalasin-D and latrunculin-A; IP with antibodies to FAK, cortactin or GFP, 2 h at 4°C; immunoblotting
[2] = molecular target: FAK, endogenous in MEFs (mouse (endogenous in MEFs)) (UniProt P34152); experiment: co-IP; as a2, lysates of cells replated onto FN for 30 min
[3] = molecular target: cortactin, endogenous in MEFs (mouse (endogenous in MEFs)) (UniProt Q60598); experiment: co-IP; lysates of MEFs or GFP-FAK reconstituted FAK-/- MEFs held in suspension or replated on FN (30 and 60 min); Extraction Buffer with 1% Triton X-100, 0.5% sodium deoxycholate, 0.1% SDS, cytochalasin-D and latrunculin-A; IP with antibodies to FAK, cortactin or GFP, 2 h at 4°C; immunoblotting

Row | binding [1] | binding [2] | binding [3] | Substance
1 | binds | binds weakly |  | cortactin, endogenous in MEFs (from UniProt Q60598 1-546)
2 |  |  | binds | FAK, endogenous in MEFs (from UniProt P34152 1-1052)
